According to paper PMC12376675:
These are yes or no findings as the source states them, for the method shown. Binding seen in cells or lysates may run through a third protein. Some results given as binding are weak or reduced against the parent protein; the word gives no strength.

Sequences of proteins named here, by UniProt entry; tags and fusion partners are left off.
UniProt P84022: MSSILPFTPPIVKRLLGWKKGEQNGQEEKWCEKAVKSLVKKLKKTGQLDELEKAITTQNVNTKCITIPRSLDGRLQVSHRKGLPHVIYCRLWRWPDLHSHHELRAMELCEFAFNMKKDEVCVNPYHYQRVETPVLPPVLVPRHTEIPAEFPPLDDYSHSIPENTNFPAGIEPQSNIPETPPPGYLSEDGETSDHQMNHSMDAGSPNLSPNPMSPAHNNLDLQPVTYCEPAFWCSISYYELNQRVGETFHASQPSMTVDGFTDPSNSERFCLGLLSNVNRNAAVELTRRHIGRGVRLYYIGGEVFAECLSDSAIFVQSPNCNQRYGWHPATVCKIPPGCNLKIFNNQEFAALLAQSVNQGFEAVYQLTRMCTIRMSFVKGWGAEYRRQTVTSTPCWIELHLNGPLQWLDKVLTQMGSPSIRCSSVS

Tests used:
Flag-tagged SMAD3 = Flag-tagged SMAD3 (UniProt P84022); experiment: co-IP; Flag-tagged BCL6, SMAD3 or NFIB overexpressed individually in C42B-ABi cells; immunoprecipitation with a Flag antibody; BCL6, SMAD3 and NFIB detected by Western blot; IgG as negative control
Flag-tagged NFIB = Flag-tagged NFIB (UniProt O00712); experiment: as above

## NFIB (from UniProt O00712 1-420)
Flag-tagged SMAD3
  binding: binds

## SMAD3 (from UniProt P84022 1-425)
Flag-tagged NFIB
  binding: binds
